The test deals with T1, Reh1-3xFLAG (S. cerevisiae) (UniProt Q06709).
T1 sequence: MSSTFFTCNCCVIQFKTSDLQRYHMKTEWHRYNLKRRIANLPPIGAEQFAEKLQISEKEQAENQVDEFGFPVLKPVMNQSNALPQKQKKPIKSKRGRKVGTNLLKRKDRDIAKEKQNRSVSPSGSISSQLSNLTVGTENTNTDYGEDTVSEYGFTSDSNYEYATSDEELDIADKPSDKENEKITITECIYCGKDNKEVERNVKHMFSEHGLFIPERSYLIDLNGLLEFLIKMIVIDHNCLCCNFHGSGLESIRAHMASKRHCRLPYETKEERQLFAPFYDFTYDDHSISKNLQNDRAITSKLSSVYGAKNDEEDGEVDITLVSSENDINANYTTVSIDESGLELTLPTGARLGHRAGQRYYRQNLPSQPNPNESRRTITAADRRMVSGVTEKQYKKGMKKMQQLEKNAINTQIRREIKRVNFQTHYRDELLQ
As to the kind of experiment: cryo-EM structure.

By UniProt entry, the sequences of proteins in these tests, tags left out.
UniProt Q12522: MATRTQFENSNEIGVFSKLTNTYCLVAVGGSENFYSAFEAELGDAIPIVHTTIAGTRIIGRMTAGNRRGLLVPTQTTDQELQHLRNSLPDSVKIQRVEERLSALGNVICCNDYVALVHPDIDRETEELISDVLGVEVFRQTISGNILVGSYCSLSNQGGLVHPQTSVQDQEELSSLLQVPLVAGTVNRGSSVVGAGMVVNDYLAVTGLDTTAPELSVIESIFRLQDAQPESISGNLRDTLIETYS

Results are given in words; binding and its absence hold for the method and conditions named. Some entries that bind do so weakly or less than the wild type. Sequences can lack the tags named with a protein.

Take Tif6 (from UniProt Q12522 1-245): the binding entry is on record as “binds”.

B1: Nmd3 (protein, UniProt P38861 1-518)
chain: MEFTPIDPHQHQNAATLLCCNCGTPIDGSTGLVMCYDCIKLTVDITQGIPREANISFCRNCERFLQPPGQWIRAELESRELLAICLRRLKGLTKVRLVDASFIWTEPHSRRIRIKLTVQGEAMTNTIIQQTFEVEYIVIAMQCPDCARSYTTNTWRATVQIRQKVPHKRTFLFLEQLILKHNAHVDTISISEAKDGLDFFYAQKNHAVKMIDFLNAVVPIKHKKSEELISQDTHTGASTYKFSYSVEIVPICKDDLVVLPKKLAKSMGNISQFVLCSKISNTVQFMDPTTLQTADLSPSVYWRAPFNALADVTQLVEFIVLDVDSTGISRGNRVLADITVARTSDLGVNDQVYYVRSHLGGICHAGDSVMGYFIANSNYNSDLFDGLNIDYVPDVVLVKKLYQRKSKKSRHWKLKRMAKEHKDIDASLDYNSRAQKQEMERAEKDYELFLQELEEDAELRQSVNLYKNREANVPPEEHEMDEDEDEDAPQINIDELLDELDEMTLEDGVENTPVESQQ
On to B1, for which the binding entry is “binds”.

The values are drawn from doi:10.1101/2023.10.23.563604.
